Assay results: US12060400B2, “Peptides for use in immunotherapy against cancers” (Immatics Biotechnologies GmbH, priority 2018, dated 2024)
For some assays here: Expression values are those of the mRNA of the gene that encodes the peptide; a gene is named only where it was looked up.

Key:
[1] = system: source gene exon mRNA in tumor and normal tissue samples; assay: Expression profiling (RNAseq) of genes encoding the peptides, tumor versus normal tissues; set-up: species or system human; settings: for Exon Expression in tumor types vs normal tissue panel: over-expressed (+): tumor types in which the peptide's exon is over-expressed (+) vs panel of normal tissues; for Exon Expression in tumor types vs normal tissue panel: over-expressed (+) / Exon Expression in tumor types vs normal tissue panel: very highly over-expressed (+++) / Exon Expression in tumor types vs normal tissue panel: highly over-expressed (++): RNAseq, Table 9a; for Exon Expression in tumor types vs normal tissue panel: very highly over-expressed (+++): tumor types in which the peptide's exon is very highly over-expressed (+++) vs panel of normal tissues; for Exon Expression in tumor types vs normal tissue panel: highly over-expressed (++): tumor types in which the peptide's exon is highly over-expressed (++) vs panel of normal tissues; for expression profile of source gene, over-expressed in different cancer samples: FIGS. 2A-2Q, RNAseq FPKM, tumor versus normal samples
[2] = system: HLA molecules of primary tumor and normal tissue samples (cancer entities); assay: Identification and label-free LC-MS quantitation of HLA-presented tumor-associated peptides on tissue samples; set-up: species or system human; settings: cancer entities on whose tumor tissue samples the HLA-presented peptide was found (LC-MS); abbreviations in the footnotes of Table 8a

2: peptide found in AFP (gene looked up) (LYAPTILLW; listed as Homo sapiens) [compound 2]
Exon Expression in tumor types vs normal tissue panel: over-expressed (+) [1]: GBC | Exon Expression in tumor types vs normal tissue panel: very highly over-expressed (+++) [1]: CCC, HCC | Peptide Presentation on cancer entities [2]: CRC, GC, NSCLCadeno, NSCLCsquam, UEC

3: peptide found in TRPM8 (gene looked up) (KFLTHDVLTELF; listed as Homo sapiens) [compound 3]
Exon Expression in tumor types vs normal tissue panel: highly over-expressed (++) [1]: GBM, SCLC | Exon Expression in tumor types vs normal tissue panel: over-expressed (+) [1]: MEL | Exon Expression in tumor types vs normal tissue panel: very highly over-expressed (+++) [1]: PRCA | Peptide Presentation on cancer entities [2]: PRCA

12: peptide found in CHRNA9 (gene looked up) (KYMSRVLFVY; listed as Homo sapiens) [compound 12]
Exon Expression in tumor types vs normal tissue panel: highly over-expressed (++) [1]: GBM, HNSCC, SCLC | Exon Expression in tumor types vs normal tissue panel: over-expressed (+) [1]: MEL, NSCLCadeno, NSCLCsquam, OC, OSCAR, UBC, UEC | Exon Expression in tumor types vs normal tissue panel: very highly over-expressed (+++) [1]: NSCLCother | Peptide Presentation on cancer entities [2]: CCC

14: peptide found in CHRNA9 (gene looked up) (YYIATMALI; listed as Homo sapiens) [compound 14]
Exon Expression in tumor types vs normal tissue panel: highly over-expressed (++) [1]: GBM, HNSCC, SCLC | Exon Expression in tumor types vs normal tissue panel: over-expressed (+) [1]: MEL, NSCLCadeno, NSCLCsquam, OC, OSCAR, UBC, UEC | Exon Expression in tumor types vs normal tissue panel: very highly over-expressed (+++) [1]: NSCLCother | Peptide Presentation on cancer entities [2]: PRCA

15: peptide found in SLC6A3 (gene looked up) (FMVIAGMPLF; listed as Homo sapiens) [compound 15]
Exon Expression in tumor types vs normal tissue panel: over-expressed (+) [1]: NSCLCadeno, NSCLCsquam | Exon Expression in tumor types vs normal tissue panel: very highly over-expressed (+++) [1]: RCC | Peptide Presentation on cancer entities [2]: AML, CLL, GC, HCC, NHL, NSCLCother

16: peptide found in TRPM8 (gene looked up) (GYFLAQYLM; listed as Homo sapiens) [compound 16]
Exon Expression in tumor types vs normal tissue panel: over-expressed (+) [1]: GBM, MEL | Exon Expression in tumor types vs normal tissue panel: very highly over-expressed (+++) [1]: PRCA | Peptide Presentation on cancer entities [2]: RCC

17: peptide found in SLC6A3 (gene looked up) (IYPEAIATL; listed as Homo sapiens) [compound 17]
Exon Expression in tumor types vs normal tissue panel: over-expressed (+) [1]: NSCLCadeno | Exon Expression in tumor types vs normal tissue panel: very highly over-expressed (+++) [1]: RCC | Peptide Presentation on cancer entities [2]: BRCA, NSCLCadeno, NSCLCother, RCC

18: peptide found in MMP12 (gene looked up) (KYVDINTFRL; listed as Homo sapiens) [compound 18]
Exon Expression in tumor types vs normal tissue panel: highly over-expressed (++) [1]: CCC, GC, MEL, NHL, NSCLCadeno, OC, PACA, UEC | Exon Expression in tumor types vs normal tissue panel: over-expressed (+) [1]: HCC, RCC | Exon Expression in tumor types vs normal tissue panel: very highly over-expressed (+++) [1]: CRC, GBC, HNSCC, NSCLCother, NSCLCsquam, OSCAR, SCLC, UBC | Peptide Presentation on cancer entities [2]: NSCLCsquam

19: peptide found in CYP4Z1 (gene looked up) (ILLCMSLLLF; listed as Homo sapiens) [compound 19]
Exon Expression in tumor types vs normal tissue panel: very highly over-expressed (+++) [1]: BRCA | Peptide Presentation on cancer entities [2]: NSCLCadeno, NSCLCsquam, PRCA

20: peptide found in CYP4Z1 (gene looked up) (ELMAHPFLL; listed as Homo sapiens) [compound 20]
Exon Expression in tumor types vs normal tissue panel: very highly over-expressed (+++) [1]: BRCA | Peptide Presentation on cancer entities [2]: OC, PACA

26: peptide found in MMP12 (gene looked up) (TYFFVDNQYW; listed as Homo sapiens) [compound 26]
Exon Expression in tumor types vs normal tissue panel: highly over-expressed (++) [1]: CCC, CRC, GBC, GC, HNSCC, MEL, NSCLCadeno, OC, OSCAR, PACA, SCLC, UBC, UEC | Exon Expression in tumor types vs normal tissue panel: over-expressed (+) [1]: HCC, NHL, RCC | Exon Expression in tumor types vs normal tissue panel: very highly over-expressed (+++) [1]: NSCLCother, NSCLCsquam | Peptide Presentation on cancer entities [2]: NSCLCsquam, OSCAR

28: peptide found in OR51E2 (gene looked up) (FWFDSREISF; listed as Homo sapiens) [compound 28]
Exon Expression in tumor types vs normal tissue panel: very highly over-expressed (+++) [1]: PRCA | Peptide Presentation on cancer entities [2]: PRCA

29: peptide found in OR51E2 (gene looked up) (IYLLLPPVI; listed as Homo sapiens) [compound 29]
Exon Expression in tumor types vs normal tissue panel: very highly over-expressed (+++) [1]: PRCA | Peptide Presentation on cancer entities [2]: NSCLCadeno, PRCA

31: peptide found in MMP1 (gene looked up) (KQMQEFFGL; listed as Homo sapiens) [compound 31]
Exon Expression in tumor types vs normal tissue panel: highly over-expressed (++) [1]: GC, NSCLCadeno, NSCLCsquam, OSCAR, UBC | Exon Expression in tumor types vs normal tissue panel: over-expressed (+) [1]: CRC, MEL, PACA | Exon Expression in tumor types vs normal tissue panel: very highly over-expressed (+++) [1]: HNSCC | Peptide Presentation on cancer entities [2]: GC, NSCLCsquam

32: peptide found in MMP1 (gene looked up) (FYPEVELNF; listed as Homo sapiens) [compound 32]
Exon Expression in tumor types vs normal tissue panel: highly over-expressed (++) [1]: HNSCC, NSCLCadeno, NSCLCsquam, OSCAR, UBC | Exon Expression in tumor types vs normal tissue panel: over-expressed (+) [1]: CRC, GC, MEL, PACA | Peptide Presentation on cancer entities [2]: CCC, UBC

39: peptide found in ENPP3 (gene looked up) (KTYLPTFETTI; listed as Homo sapiens) [compound 39]
Exon Expression in tumor types vs normal tissue panel: highly over-expressed (++) [1]: RCC | Exon Expression in tumor types vs normal tissue panel: over-expressed (+) [1]: UEC | Peptide Presentation on cancer entities [2]: UEC

40: peptide found in ESR1 (gene looked up) (NYPEGAAYEF; listed as Homo sapiens) [compound 40]
Exon Expression in tumor types vs normal tissue panel: highly over-expressed (++) [1]: BRCA, OC, UEC | Peptide Presentation on cancer entities [2]: NSCLCadeno, OC

SEQ ID No.: 3: peptide found in TRPM8 (gene looked up) (KFLTHDVLTELF; listed as Homo sapiens)
expression profile of source gene, over-expressed in different cancer samples [1]: over-expressed

SEQ ID No.: 13: peptide found in CHRNA9 (gene looked up) (KYYIATMAL; listed as Homo sapiens)
expression profile of source gene, over-expressed in different cancer samples [1]: over-expressed

SEQ ID No.: 18: peptide found in MMP12 (gene looked up) (KYVDINTFRL; listed as Homo sapiens)
expression profile of source gene, over-expressed in different cancer samples [1]: over-expressed

SEQ ID No.: 28: peptide found in OR51E2 (gene looked up) (FWFDSREISF; listed as Homo sapiens)
expression profile of source gene, over-expressed in different cancer samples [1]: over-expressed

SEQ ID No.: 31: peptide found in MMP1 (gene looked up) (KQMQEFFGL; listed as Homo sapiens)
expression profile of source gene, over-expressed in different cancer samples [1]: over-expressed

SEQ ID No.: 39: peptide found in ENPP3 (gene looked up) (KTYLPTFETTI; listed as Homo sapiens)
expression profile of source gene, over-expressed in different cancer samples [1]: over-expressed

SEQ ID No.: 97: peptide found in OR51E2 (gene looked up) (TQMFFIHAL; listed as Homo sapiens)
expression profile of source gene, over-expressed in different cancer samples [1]: over-expressed
